Values joined by “and” are separate entries in the source; they are usually repeats but may differ in a detail not shown here. Equal entries are not always repeated. Further values from the same series stand in other lists.
Legend:
Assay type in all cases: cell-based
aerobic total count [1] = experiment: Preservative action in bratwurst sausage, aerobic total count; conditions: Example 11, bratwurst sausage, LAE 0.2 g/kg
Procedure: (3) Determination of Preservative Action in Bratwurst Sausage.
The ingredients for all samples were : minced pork back, underbelly, spices, salt and additives (milk protein, diphosphate, antioxidant (E-300) and flavour enhance (E-621)).
1. On the cutter the minced pork back meat was ground and the ingredients were added in this order: the additives (except the preservative system), the underbelly, the spices and the preservative system (such as the cationic surfactant alone or in combination with other products). Ice was also added for controlling the temperature (maximum 5° C.) of the meat. The mixing time was 12 minutes.
2. The mass was vacuum mixed (92%) for 1 minute.
3. The mixture was stuffed into natural casings. The casings were previously soaked in a salted water solution for 30 minutes.
4. The bratwurst sausages were put in a cooking trolley. Cooking took place in a oven at 80° C. for 1 hour.
5. After cooking, the bratwurst sausages were sprayed with cool water for 5 minutes and put in a cold-storage room (0-5° C., 24 hours).
6. The next day, bratwurst sausages were packed (each packed contained five sausages) and pasteurised at 80° C. for 30 minutes and then. After, they were soaked in cool water for 30 minutes.
7. Finally, the bratwurst sausages were labelled and stored at 5° C. for 90 days.
Samples were analysed (aerobic total count) for up to 90 days. Aerobic total count was analysed by stomaching 25 g of sausage in 225 g of buffered peptone water. Dilutions were made in buffered peptone water. Tryptone Soya Agar was harvested with each dilution and incubated at 35° C. for 48 hours.
Average values in log cfu/g of three samples per treatment and day of analysis were calculated.

aerobic total count [2] = experiment: Preservative action in cooked chicken breast, aerobic total count
Procedure: (2) Determination of Preservative Action in Chicken Breast. Process of Preparation • 1. Fresh chicken breast was diced to pieces • 2. Brine (8.70% sodium chloride and 4.35% tripolyphosphate in water) was added to the fresh chicken in an amount of 11.5 g brine per 88.5 g meat in the control preparation and 11.5 g brine and 88.4 g meat in the preparations treated with preservative. • 3. Brine and meat were mixed during 15 minutes, in the preparations treated with preservative the preservative was added after 14 minutes in an amount of 0.2 g/kg. • 4. Vacuum refrigerate tumbling was made during 30 minutes. • 5. Samples were vacuum-packed in sterile bags and they were cooked at 85° C. for 30 minutes. • 6. The cooked chicken was refrigerated at 4° C. • 7. The cooked chicken was diced in irregular shapes. • 8. Then, the nuggets were stored at 10° C. in sterile vacuum-packed bags. Analysis […] Dilutions were made in buffered peptone water. Tryptone Soya Agar was harvested with each dilution and incubated at 35° C. for 48 hours. The mean value in log cfu/g of three samples per treatment and day of analysis was calculated.

aerobic total count [3] = experiment: Preservative action in soaked chickpeas, aerobic total count; conditions: Example 13, soaked chickpeas, LAE 0.2 g/kg in soaking water, samples 1-3
Procedure: (4) Determination of Preservative Action in Soaked Chick-peas.
Chickpeas are the principal ingredients in a lot of ready-to-eat meals. Before cooking them, chickpeas have to be soaked in water at room temperature for 24 hours. During this period, fermentation processes may occur and therefore, chickpeas would not be suitable for eating. The soaking process cannot be made at refrigeration temperatures, because the structure of the chickpeas could be damaged.
• 1. Chickpeas were soaked in water for 24 hours at 30° C. and 50% HR (in treated samples preservative was added at this point); and • 2. after 24 hours the chickpeas were strained. Analysis • Samples were analysed (aerobic total count and concentration of the cationic surfactant) by triplicate for 24 hours. • Aerobic total count was analysed by stomaching 25 g of chickpeas in 225 g of buffered peptone water. Dilutions were made in buffered peptone water. Tryptone Soya Agar was harvested with each dilution and incubated at 35° C. for 48 hours. • Average values in log cfu/g of three samples per treatment and day of analysis were calculated. • LAE was analysed by HPLC using an internally validated method.

Question: `CCCCCCCCCCCC(=O)N[C@@H](CCCN=C(N)N)C(=O)OCC.Cl` [LAE, ethyl ester of the lauramide of the arginine monohydrochloride] was tested. Which aerobic total count (aerobic total count [1]; day 0, samples 1-3) did it give?
Answer: Its aerobic total count is 2.0 log cfu/g.

Question: And the aerobic total count (aerobic total count [1]; day 15, samples 1-3)?
Answer: The aerobic total count was 2.0 log cfu/g.

Question: What about the aerobic total count (aerobic total count [1]; day 30, samples 1-3, monohydrochloride) of the same molecule?
Answer: The aerobic total count was 2.3 log cfu/g and 2.5 log cfu/g.

Question: And the aerobic total count (aerobic total count [1]; day 45, samples 1-3)?
Answer: The aerobic total count was 2.9 log cfu/g.

Question: What about the aerobic total count (aerobic total count [1]; day 45, samples 1-3, monohydrochloride) of the same molecule?
Answer: The aerobic total count was 2.5 log cfu/g and 3.0 log cfu/g.

Question: And the aerobic total count (aerobic total count [1]; day 60, samples 1-3)?
Answer: The aerobic total count was 3.6 log cfu/g.

Question: What about the aerobic total count (aerobic total count [1]; day 60, samples 1-3, monohydrochloride) of the same molecule?
Answer: Its aerobic total count is 3.3 log cfu/g and 3.2 log cfu/g.

Question: And the aerobic total count (aerobic total count [1]; day 75, samples 1-3, monohydrochloride)?
Answer: The aerobic total count was 3.9 log cfu/g and 3.6 log cfu/g.

Question: What about the aerobic total count (aerobic total count [1]; day 90, samples 1-3, monohydrochloride) of the same molecule?
Answer: Its aerobic total count is 4.2 log cfu/g and 4.1 log cfu/g and 4.4 log cfu/g.

Question: What about the aerobic total count (aerobic total count [2]; Example 14, cooked chicken, LAE 0.2 g/kg, day 0, samples 1-3) of the same molecule?
Answer: The aerobic total count was 2.0 log cfu/g.

Question: And the aerobic total count (aerobic total count [2]; Example 14, cooked chicken, LAE 0.2 g/kg, day 56, samples 1-3, monohydrochloride)?
Answer: The aerobic total count was 5.6 log cfu/g and 6.0 log cfu/g.

Question: What about the aerobic total count (aerobic total count [2]; Example 16, cooked chicken, 0.20 g of LAE/kg, day 0, samples 1-3) of the same molecule?
Answer: Its aerobic total count is 2.0 log cfu/g.

Question: And the aerobic total count (aerobic total count [2]; Example 16, cooked chicken, 0.20 g of LAE/kg, day 7, samples 1-3)?
Answer: The aerobic total count was 2.0 log cfu/g.

Question: What about the aerobic total count (aerobic total count [2]; Example 16, cooked chicken, 0.20 g of LAE/kg, day 14, samples 1-3) of the same molecule?
Answer: The aerobic total count was 2.4 log cfu/g.

Question: What about the aerobic total count (aerobic total count [2]; Example 16, cooked chicken, 0.20 g of LAE/kg, day 14, samples 1-3, monohydrochloride) of the same molecule?
Answer: The aerobic total count was 2.2 log cfu/g and 2.1 log cfu/g.

Question: What about the aerobic total count (aerobic total count [2]; Example 16, cooked chicken, 0.20 g of LAE/kg, day 21, samples 1-3, monohydrochloride) of the same molecule?
Answer: Its aerobic total count is 2.7 log cfu/g and 2.6 log cfu/g and 3.1 log cfu/g.

Question: What about the aerobic total count (aerobic total count [2]; Example 16, cooked chicken, 0.20 g of LAE/kg, day 28, samples 1-3, monohydrochloride) of the same molecule?
Answer: Its aerobic total count is 2.9 log cfu/g and 3.2 log cfu/g and 3.4 log cfu/g.

Question: And the aerobic total count (aerobic total count [2]; Example 16, cooked chicken, 0.20 g of LAE/kg, day 35, samples 1-3, monohydrochloride)?
Answer: Its aerobic total count is 3.4 log cfu/g and 3.7 log cfu/g.

Question: And the aerobic total count (aerobic total count [2]; Example 16, cooked chicken, 0.20 g of LAE/kg, day 42, samples 1-3, monohydrochloride)?
Answer: Its aerobic total count is 4.5 log cfu/g and 4.3 log cfu/g and 4.1 log cfu/g.

Question: What about the aerobic total count (aerobic total count [2]; Example 16, cooked chicken, 0.20 g of LAE/kg, day 49, samples 1-3, monohydrochloride) of the same molecule?
Answer: The aerobic total count was 5.0 log cfu/g and 4.7 log cfu/g and 5.1 log cfu/g.

Question: What about the aerobic total count (aerobic total count [2]; Example 16, cooked chicken, 0.20 g of LAE/kg, day 56, samples 1-3, monohydrochloride) of the same molecule?
Answer: The aerobic total count was 5.6 log cfu/g and 5.4 log cfu/g.

Question: And the aerobic total count (aerobic total count [2]; Example 18, cooked chicken, 0.2 g of LAE/kg, day 0, samples 1-3)?
Answer: Its aerobic total count is 2.0 log cfu/g.

Question: What about the aerobic total count (aerobic total count [2]; Example 18, cooked chicken, 0.2 g of LAE/kg, day 7, samples 1-3) of the same molecule?
Answer: The aerobic total count was 2.0 log cfu/g.

Question: And the aerobic total count (aerobic total count [2]; Example 18, cooked chicken, 0.2 g of LAE/kg, day 14, samples 1-3)?
Answer: The aerobic total count was 2.4 log cfu/g.

Question: What about the aerobic total count (aerobic total count [2]; Example 18, cooked chicken, 0.2 g of LAE/kg, day 14, samples 1-3, monohydrochloride) of the same molecule?
Answer: Its aerobic total count is 2.2 log cfu/g and 2.6 log cfu/g.

Question: What about the aerobic total count (aerobic total count [2]; Example 18, cooked chicken, 0.2 g of LAE/kg, day 21, samples 1-3, monohydrochloride) of the same molecule?
Answer: Its aerobic total count is 3.0 log cfu/g and 2.7 log cfu/g and 3.1 log cfu/g.

Question: And the aerobic total count (aerobic total count [2]; Example 18, cooked chicken, 0.2 g of LAE/kg, day 28, samples 1-3)?
Answer: The aerobic total count was 3.4 log cfu/g.

Question: What about the aerobic total count (aerobic total count [2]; Example 18, cooked chicken, 0.2 g of LAE/kg, day 28, samples 1-3, monohydrochloride) of the same molecule?
Answer: Its aerobic total count is 3.3 log cfu/g and 3.5 log cfu/g.

Question: What about the aerobic total count (aerobic total count [2]; Example 18, cooked chicken, 0.2 g of LAE/kg, day 35, samples 1-3, monohydrochloride) of the same molecule?
Answer: Its aerobic total count is 3.6 log cfu/g and 3.7 log cfu/g.

Question: And the aerobic total count (aerobic total count [2]; Example 18, cooked chicken, 0.2 g of LAE/kg, day 42, samples 1-3, monohydrochloride)?
Answer: The aerobic total count was 4.3 log cfu/g and 4.0 log cfu/g and 3.9 log cfu/g.

Question: What about the aerobic total count (aerobic total count [2]; Example 18, cooked chicken, 0.2 g of LAE/kg, day 49, samples 1-3, monohydrochloride) of the same molecule?
Answer: The aerobic total count was 5.3 log cfu/g and 5.0 log cfu/g and 5.2 log cfu/g.

Question: And the aerobic total count (aerobic total count [2]; Example 18, cooked chicken, 0.2 g of LAE/kg, day 56, samples 1-3, monohydrochloride)?
Answer: The aerobic total count was 5.8 log cfu/g and 5.4 log cfu/g and 5.9 log cfu/g.

Question: What about the aerobic total count (aerobic total count [3]; 0 hours) of the same molecule?
Answer: The aerobic total count was 2.0 log cfu/g.

Question: What about the aerobic total count (aerobic total count [3]; 4 hours) of the same molecule?
Answer: The aerobic total count was 2.0 log cfu/g.

Question: And the aerobic total count (aerobic total count [3]; 8 hours)?
Answer: The aerobic total count was 2.7 log cfu/g.

Question: What about the aerobic total count (aerobic total count [3]; 8 hours, monohydrochloride) of the same molecule?
Answer: The aerobic total count was 2.6 log cfu/g and 2.3 log cfu/g.

Question: What about the aerobic total count (aerobic total count [3]; 16 hours, monohydrochloride) of the same molecule?
Answer: Its aerobic total count is 3.9 log cfu/g and 3.6 log cfu/g.

Question: And the aerobic total count (aerobic total count [3]; 24 hours, monohydrochloride)?
Answer: The aerobic total count was 4.2 log cfu/g and 4.5 log cfu/g and 4.1 log cfu/g.
